Assay results published in the supplement of paper PMC11006884.
Only a part is listed here, and it is no random draw. This is a noisy data set.

Amino acid sequences for entries named in this document (tags omitted). A change or cut given only in a name is not applied to a line headed by its entry.
UniProt Q02241: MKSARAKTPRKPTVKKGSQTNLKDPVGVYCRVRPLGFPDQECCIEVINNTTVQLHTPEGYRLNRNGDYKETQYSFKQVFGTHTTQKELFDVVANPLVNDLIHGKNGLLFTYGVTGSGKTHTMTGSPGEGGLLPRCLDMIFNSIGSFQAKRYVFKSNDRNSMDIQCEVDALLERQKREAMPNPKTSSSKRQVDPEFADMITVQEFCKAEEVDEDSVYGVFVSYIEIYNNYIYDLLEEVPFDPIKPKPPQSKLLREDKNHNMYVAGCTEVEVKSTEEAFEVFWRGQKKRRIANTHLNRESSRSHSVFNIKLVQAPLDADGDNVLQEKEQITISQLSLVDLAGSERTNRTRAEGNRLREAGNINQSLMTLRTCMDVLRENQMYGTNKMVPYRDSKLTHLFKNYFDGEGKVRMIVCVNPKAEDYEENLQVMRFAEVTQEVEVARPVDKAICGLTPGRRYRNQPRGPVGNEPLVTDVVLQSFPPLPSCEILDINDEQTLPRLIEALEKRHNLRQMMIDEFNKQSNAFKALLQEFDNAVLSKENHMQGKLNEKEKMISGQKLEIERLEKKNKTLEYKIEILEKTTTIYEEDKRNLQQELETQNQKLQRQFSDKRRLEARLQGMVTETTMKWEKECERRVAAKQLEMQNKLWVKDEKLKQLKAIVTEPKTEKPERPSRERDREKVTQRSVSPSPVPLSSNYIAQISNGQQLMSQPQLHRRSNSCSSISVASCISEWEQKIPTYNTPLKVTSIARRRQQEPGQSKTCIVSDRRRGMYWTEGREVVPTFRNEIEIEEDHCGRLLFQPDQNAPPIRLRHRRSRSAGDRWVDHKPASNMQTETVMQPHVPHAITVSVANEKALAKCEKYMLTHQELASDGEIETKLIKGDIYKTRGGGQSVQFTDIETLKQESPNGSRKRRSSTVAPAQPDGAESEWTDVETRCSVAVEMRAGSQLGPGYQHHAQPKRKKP
UniProt Q01780: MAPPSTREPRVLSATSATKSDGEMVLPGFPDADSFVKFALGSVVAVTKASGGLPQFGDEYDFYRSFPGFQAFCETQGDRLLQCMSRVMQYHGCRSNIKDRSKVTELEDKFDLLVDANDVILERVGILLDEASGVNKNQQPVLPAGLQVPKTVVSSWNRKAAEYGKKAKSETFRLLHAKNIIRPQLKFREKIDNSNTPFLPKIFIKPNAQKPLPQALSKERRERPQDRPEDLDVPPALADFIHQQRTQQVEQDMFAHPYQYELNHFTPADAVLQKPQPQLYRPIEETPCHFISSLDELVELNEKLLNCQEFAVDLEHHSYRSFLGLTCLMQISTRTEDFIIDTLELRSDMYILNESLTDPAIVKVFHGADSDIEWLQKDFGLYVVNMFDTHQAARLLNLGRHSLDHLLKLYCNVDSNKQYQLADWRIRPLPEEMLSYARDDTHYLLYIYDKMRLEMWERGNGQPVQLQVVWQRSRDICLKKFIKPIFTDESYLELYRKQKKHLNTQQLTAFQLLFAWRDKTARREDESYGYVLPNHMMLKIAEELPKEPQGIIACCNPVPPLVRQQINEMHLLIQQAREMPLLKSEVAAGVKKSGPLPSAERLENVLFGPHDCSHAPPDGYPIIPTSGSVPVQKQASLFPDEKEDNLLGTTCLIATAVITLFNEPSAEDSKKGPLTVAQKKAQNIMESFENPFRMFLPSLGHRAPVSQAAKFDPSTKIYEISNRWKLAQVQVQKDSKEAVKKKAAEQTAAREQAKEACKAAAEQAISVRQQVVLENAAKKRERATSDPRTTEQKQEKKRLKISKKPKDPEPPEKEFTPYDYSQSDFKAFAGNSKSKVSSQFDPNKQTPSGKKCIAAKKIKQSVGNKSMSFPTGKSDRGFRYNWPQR
UniProt P78527, whole entry, looked up: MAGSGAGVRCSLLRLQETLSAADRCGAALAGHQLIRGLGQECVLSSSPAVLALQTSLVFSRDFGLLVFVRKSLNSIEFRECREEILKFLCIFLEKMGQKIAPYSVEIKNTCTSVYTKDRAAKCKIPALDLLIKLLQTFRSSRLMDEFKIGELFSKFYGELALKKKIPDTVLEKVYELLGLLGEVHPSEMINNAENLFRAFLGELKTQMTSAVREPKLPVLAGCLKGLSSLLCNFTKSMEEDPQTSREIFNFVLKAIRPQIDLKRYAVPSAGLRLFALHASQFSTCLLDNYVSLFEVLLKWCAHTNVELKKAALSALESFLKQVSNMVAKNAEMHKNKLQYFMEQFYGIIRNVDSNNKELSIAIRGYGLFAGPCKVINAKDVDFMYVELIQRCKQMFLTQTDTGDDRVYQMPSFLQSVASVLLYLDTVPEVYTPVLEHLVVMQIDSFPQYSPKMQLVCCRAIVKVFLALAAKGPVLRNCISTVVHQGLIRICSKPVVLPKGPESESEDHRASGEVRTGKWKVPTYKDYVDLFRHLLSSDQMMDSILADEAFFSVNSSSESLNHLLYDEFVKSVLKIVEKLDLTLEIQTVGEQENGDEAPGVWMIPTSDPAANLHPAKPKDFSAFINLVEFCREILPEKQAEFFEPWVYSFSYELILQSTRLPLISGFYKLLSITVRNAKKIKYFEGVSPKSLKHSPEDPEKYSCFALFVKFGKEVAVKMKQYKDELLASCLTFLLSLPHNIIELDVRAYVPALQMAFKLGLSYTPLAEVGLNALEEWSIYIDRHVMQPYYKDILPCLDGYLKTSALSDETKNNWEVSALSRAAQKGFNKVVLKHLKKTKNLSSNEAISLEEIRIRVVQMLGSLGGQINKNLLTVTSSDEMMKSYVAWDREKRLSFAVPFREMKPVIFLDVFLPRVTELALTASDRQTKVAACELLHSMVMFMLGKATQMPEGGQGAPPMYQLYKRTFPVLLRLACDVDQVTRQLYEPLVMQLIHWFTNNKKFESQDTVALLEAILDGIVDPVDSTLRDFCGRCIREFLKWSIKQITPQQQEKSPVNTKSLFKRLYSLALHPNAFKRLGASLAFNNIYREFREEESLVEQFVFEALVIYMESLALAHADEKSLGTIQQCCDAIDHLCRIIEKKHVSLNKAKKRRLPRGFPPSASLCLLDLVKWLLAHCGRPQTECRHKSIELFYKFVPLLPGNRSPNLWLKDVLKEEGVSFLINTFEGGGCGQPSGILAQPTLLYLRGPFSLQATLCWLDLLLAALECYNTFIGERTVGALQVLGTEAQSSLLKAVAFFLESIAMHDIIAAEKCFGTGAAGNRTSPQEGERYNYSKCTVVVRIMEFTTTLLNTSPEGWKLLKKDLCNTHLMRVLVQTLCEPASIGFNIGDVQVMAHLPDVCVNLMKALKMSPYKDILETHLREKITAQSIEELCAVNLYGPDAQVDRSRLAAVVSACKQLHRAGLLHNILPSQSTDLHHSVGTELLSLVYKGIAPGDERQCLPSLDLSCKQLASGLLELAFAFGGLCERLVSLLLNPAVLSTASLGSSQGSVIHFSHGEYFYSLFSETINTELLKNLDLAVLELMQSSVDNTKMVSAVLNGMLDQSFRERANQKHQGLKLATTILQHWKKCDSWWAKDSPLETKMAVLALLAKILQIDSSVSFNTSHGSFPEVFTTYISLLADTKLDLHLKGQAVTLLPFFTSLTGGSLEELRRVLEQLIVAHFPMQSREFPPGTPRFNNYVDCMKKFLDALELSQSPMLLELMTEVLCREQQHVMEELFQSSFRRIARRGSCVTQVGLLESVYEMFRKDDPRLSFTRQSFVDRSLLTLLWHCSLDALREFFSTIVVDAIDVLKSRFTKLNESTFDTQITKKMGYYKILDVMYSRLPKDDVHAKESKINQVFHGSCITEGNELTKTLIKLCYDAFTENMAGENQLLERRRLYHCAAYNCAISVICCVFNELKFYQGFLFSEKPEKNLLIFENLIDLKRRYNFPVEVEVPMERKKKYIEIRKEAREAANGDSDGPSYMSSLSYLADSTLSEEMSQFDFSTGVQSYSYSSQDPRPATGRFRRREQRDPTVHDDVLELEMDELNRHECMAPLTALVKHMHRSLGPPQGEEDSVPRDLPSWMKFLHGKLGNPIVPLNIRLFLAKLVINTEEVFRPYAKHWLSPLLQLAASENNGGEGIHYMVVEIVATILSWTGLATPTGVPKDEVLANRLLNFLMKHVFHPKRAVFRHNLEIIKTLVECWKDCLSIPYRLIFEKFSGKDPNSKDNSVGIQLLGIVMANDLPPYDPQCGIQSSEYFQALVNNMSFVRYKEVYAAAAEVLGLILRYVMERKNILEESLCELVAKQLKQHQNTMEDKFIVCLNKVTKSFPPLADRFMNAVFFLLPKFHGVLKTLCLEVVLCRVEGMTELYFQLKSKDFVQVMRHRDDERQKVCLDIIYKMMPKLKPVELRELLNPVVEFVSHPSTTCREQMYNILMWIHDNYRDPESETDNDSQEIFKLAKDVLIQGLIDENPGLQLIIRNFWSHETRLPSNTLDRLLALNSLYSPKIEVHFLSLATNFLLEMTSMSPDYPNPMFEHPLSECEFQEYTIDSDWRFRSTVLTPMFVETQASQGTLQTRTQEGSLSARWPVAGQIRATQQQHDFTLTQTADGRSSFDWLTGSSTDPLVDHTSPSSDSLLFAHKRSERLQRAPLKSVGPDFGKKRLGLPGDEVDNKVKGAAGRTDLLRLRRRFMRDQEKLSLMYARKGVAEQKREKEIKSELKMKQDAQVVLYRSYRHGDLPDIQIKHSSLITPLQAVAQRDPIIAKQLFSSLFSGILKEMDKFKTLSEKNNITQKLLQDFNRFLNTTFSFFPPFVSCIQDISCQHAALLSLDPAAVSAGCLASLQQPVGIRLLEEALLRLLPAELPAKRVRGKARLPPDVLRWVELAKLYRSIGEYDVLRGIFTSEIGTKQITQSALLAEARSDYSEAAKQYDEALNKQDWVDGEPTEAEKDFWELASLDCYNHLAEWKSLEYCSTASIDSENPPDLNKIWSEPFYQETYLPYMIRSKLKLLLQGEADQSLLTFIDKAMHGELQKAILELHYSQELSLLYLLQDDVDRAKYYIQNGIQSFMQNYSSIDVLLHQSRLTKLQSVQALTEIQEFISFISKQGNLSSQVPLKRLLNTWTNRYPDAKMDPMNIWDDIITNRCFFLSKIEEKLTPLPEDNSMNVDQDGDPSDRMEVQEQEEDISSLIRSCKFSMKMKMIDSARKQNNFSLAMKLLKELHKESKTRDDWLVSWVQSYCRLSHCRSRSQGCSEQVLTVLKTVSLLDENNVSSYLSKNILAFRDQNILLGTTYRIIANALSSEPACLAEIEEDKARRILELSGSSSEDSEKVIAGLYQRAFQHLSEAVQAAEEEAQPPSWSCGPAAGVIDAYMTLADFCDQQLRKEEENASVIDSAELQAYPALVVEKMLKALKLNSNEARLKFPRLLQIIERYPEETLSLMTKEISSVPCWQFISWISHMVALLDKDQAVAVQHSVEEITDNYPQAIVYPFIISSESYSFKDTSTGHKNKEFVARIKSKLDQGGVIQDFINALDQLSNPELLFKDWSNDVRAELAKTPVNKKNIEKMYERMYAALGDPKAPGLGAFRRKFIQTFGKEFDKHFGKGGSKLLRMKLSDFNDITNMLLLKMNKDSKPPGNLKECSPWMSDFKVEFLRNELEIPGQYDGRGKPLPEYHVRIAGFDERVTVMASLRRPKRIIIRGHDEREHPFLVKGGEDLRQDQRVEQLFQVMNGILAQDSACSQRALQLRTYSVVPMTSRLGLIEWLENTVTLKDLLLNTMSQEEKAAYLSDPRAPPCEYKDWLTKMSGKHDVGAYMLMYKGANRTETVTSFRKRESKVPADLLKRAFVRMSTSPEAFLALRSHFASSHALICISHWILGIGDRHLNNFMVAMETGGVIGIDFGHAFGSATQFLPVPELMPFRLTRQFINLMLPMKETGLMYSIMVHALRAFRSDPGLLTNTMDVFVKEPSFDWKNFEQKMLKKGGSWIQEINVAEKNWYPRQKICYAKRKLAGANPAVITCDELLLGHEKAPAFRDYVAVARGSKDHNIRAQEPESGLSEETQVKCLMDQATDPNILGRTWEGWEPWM
UniProt Q00796: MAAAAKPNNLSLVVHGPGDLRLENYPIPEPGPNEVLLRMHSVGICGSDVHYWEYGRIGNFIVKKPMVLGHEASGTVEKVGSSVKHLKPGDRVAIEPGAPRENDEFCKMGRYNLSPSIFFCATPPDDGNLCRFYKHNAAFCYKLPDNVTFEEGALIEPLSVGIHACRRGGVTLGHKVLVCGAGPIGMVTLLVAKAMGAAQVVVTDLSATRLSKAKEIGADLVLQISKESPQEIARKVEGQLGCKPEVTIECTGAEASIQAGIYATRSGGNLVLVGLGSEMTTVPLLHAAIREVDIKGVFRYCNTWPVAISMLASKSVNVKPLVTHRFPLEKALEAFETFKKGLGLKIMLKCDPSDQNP
UniProt P84077: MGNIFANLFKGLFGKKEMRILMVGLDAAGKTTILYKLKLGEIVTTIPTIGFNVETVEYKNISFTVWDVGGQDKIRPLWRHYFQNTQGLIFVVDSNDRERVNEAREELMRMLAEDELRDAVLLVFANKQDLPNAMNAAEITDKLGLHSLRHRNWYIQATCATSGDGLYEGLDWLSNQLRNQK
UniProt P62306, whole entry, looked up: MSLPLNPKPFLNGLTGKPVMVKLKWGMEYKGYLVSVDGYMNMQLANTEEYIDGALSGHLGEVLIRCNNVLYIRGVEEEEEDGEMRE

compound: COC(=O)/C=C/c1ccccc1 [methyl cinnamate]; test: log2 ratio of iodoacetamide-alkyne labeling of the cysteine site, DMSO over compound (competition); higher = stronger covalent engagement of the cysteine by the compound, active = 1 or more; conditions: 500 µM; treatment time 1 h; system: HEK293T cell lysate
Method in brief: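 Reporter intensities give each cysteine's log2 competition ratio as the mean of control channels over the mean of compound channels. The samples were HEK293T lysate (2 mg/mL) given vehicle or electrophile (500 µM, 1 h, ambient temperature), then iodoacetamide alkyne (1 h), followed by click coupling to sCIP-TMT reagents, pooling, trypsin digestion overnight at 37 °C, streptavidin enrichment, acid elution, Orbitrap Eclipse LC-MS/MS with FAIMS and FragPipe quantification. Duplicate channels and three replicates were run, and cysteines quantified in only one replicate were discarded.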

log2 ratio of iodoacetamide-alkyne labeling, inactive:
EEF1A1 C111 (UniProt P68104) -0.0671
KIF23 C791 (UniProt Q02241) 0.304
EXOSC10 C651 (UniProt Q01780) 0.124
TPM4 C247 (UniProt P67936) 0.0604
UniProt P62826_C120 -0.239
UniProt P78527_C2469 0.365
SORD C350 (UniProt Q00796) -0.0414
OTUD4 C903 (UniProt Q01804) 0.468
SORD C301 (UniProt Q00796) 0.385
SPTBN1 C1389 (UniProt Q01082) -0.0689
UniProt P78527_C4061 0.141
UniProt P84077_C159 0.0402
UniProt P62306_C66 0.134
ACTG1 C17 (UniProt P63261) -0.0557
UniProt Q02040_C17 -0.183
EWSR1 C543 (UniProt Q01844) 0.13
FKBP1A C23 (UniProt P62942) -0.0568
UniProt P68363_C25 0.108
CNBP C57 (UniProt P62633) 0.0536
UniProt Q00341_C948 0.15
UniProt P62917_C114 0.341
TFAM C246 (UniProt Q00059) 0.376
RPL18A C109 (UniProt Q02543) -0.0677
UniProt P68431_C97 -0.000769
UniProt P84103_C6 0.0188
UniProt P63244_C286 0.199
PITX1 C77 (UniProt P78337) 0.679
UniProt P78527_C1432 0.0858
CLTC C617 (UniProt Q00610) 0.0726
HMGCS1 C86 (UniProt Q01581) 0.113
UniProt P62487_C106 0.0394
UniProt P84103_C10 0.0731
HNRNPU C648 (UniProt Q00839) -0.112
FKBP3 C133 (UniProt Q00688) -0.0861
EIF4G2 C255 (UniProt P78344) 0.133
UniProt P68431_C111 0.0523
HNRNPU C450 (UniProt Q00839) 0.0317

Fetched one by one from the list above (three):
log2 ratio of iodoacetamide-alkyne labeling, inactive:
TPM4 C247 (UniProt P67936) 0.0604
CNBP C57 (UniProt P62633) 0.0536
HMGCS1 C86 (UniProt Q01581) 0.113
